Experimental data published in paper PMC10209169.

Tests used:
[1] = molecular target: mCherry-Rab5 DN (S43N); test: co-IP; Rab5 co-IP from HUVEC stably transduced with Rab5 WT or Rab5 DN, PRA for the indicated times
[2] = molecular target: Rab5 (mouse) (mouse (endogenous in C57/Bl6 kidney)); test: co-IP; Rab5 co-IP from kidneys of C57/Bl6 or Rubicon-/- mice 24 h after 750 μg MOPC or anti-H-2^b Ab (n = 3 per group)

| binding [1] | binding [2] | Binder |
| --- | --- | --- |
| no binding | – | Rubicon (protein, UniProt Q92622 1-972) MRPEGAGMELGGGEERLPEESRREHWQLLGNLKTTVEGLVSTNSPNVWSKYGGLERLCRDMQSILYHGLIRDQACRRQTDYWQFVKDIRWLSPHSALHVEKFISVHENDQSSADGASERAVAELWLQHSLQYHCLSAQLRPLLGDRQYIRKFYTDAAFLLSDAHVTAMLQCLEAVEQNNPRLLAQIDASMFARKHESPLLVTKSQSLTALPSSTYTPPNSYAQHSYFGSFSSLHQSVPNNGSERRSTSFPLSGPPRKPQESRGHVSPAEDQTIQAPPVSVSALARDSPLTPNEMSSSTLTSPIEASWVSSQNDSPGDASEGPEYLAIGNLDPRGRTASCQSHSSNAESSSSNLFSSSSSQKPDSAASSLGDQEGGGESQLSSVLRRSSFSEGQTLTVTSGAKKSHIRSHSDTSIASRGAPESCNDKAKLRGPLPYSGQSSEVSTPSSLYMEYEGGRYLCSGEGMFRRPSEGQSLISYLSEQDFGSCADLEKENAHFSISESLIAAIELMKCNMMSQCLEEEEVEEEDSDREIQELKQKIRLRRQQIRTKNLLPMYQEAEHGSFRVTSSSSQFSSRDSAQLSDSGSADEVDEFEIQDADIRRNTASSSKSFVSSQSFSHCFLHSTSAEAVAMGLLKQFEGMQLPAASELEWLVPEHDAPQKLLPIPDSLPISPDDGQHADIYKLRIRVRGNLEWAPPRPQIIFNVHPAPTRKIAVAKQNYRCAGCGIRTDPDYIKRLRYCEYLGKYFCQCCHENAQMAIPSRVLRKWDFSKYYVSNFSKDLLIKIWNDPLFNVQDINSALYRKVKLLNQVRLLRVQLCHMKNMFKTCRLAKELLDSFDTVPGHLTEDLHLYSLNDLTATRKGELGPRLAELTRAGATHVERCMLCQAKGFICEFCQNEDDIIFPFELHKCRTCEECKACYHKACFKSGSCPRCERLQARREALARQSLESYLSDYEEEPAEALALEAAVLEAT |
| no binding | – | RNF34 (protein, UniProt Q969K3 1-372) MKAGATSMWASCCGLLNEVMGTGAVRGQQSAFAGATGPFRFTPNPEFSTYPPAATEGPNIVCKACGLSFSVFRKKHVCCDCKKDFCSVCSVLQENLRRCSTCHLLQETAFQRPQLMRLKVKDLRQYLILRNIPIDTCREKEDLVDLVLCHHGLGSEDDMDTSSLNSSRSQTSSFFTRSFFSNYTAPSATMSSFQGELMDGDQTSRSGVPAQVQSEITSANTEDDDDDDDEDDDDEEENAEDRNPGLSKERVRASLSDLSSLDDVEGMSVRQLKEILARNFVNYSGCCEKWELVEKVNRLYKENEENQKSYGERLQLQDEEDDSLCRICMDAVIDCVLLECGHMVTCTKCGKRMSECPICRQYVVRAVHVFKS |
| – | binds | Rubicon (mouse) (protein, UniProt Q80U62 1-956) MRPEGAGMDLGGGDGERLLEKSRREHWQLLGNLKTTVEGLVSANCPNVWSKYGGLERLCRDMQNILYHGLIHDQVCCRQADYWQFVKDIRWLSPHSALHVEKFISLHESDQSDTDSVSERAVAELWLQHSLQCHCLSAQLRPLLGDRQYIRKFYTETAFLLSDAHVTAMLQCLEAVEQNNPRLLAQIDASMFARKQESPLLVTKSQSLTALPGSTYTPPASYAQHSYFGSSSSLQSMPQSSHSSERRSTSFSLSGPSWQPQEDRECLSPAETQTTPAPLPSDSTLAQDSPLTAQEMSDSTLTSPLEASWVSSQNDSPSDVSEGPEYLAIGNPAPHGRTASCESHSSNGESSSSHLFSSSSSQKLESAASSLGDQEEGRQSQAGSVLRRSSFSEGQTAPVASGTKKSHIRSHSDTNIASRGAAGGPRNITIIVEDPIAEGGQYLCSGEGMFRRPSEGQSLISYLSEQDFGSCADLEKENAHFSISESLIAAIELMKCNMMSQCLEEEEVEEEDSDREIQELKQKIRLRRQQIRTKNLLPAYRETENGSFRVTSSSSQFSSRDSTQLSESGSAEDADDLEIQDADIRRSAVSNGKSSFSQNLSHCFLHSTSAEAVAMGLLKQFEGMQLPAASELEWLVPEHDAPQKLLPIPDSLPISPDDGQHADIYKLRIRVRGNLEWAPPRPQIIFNVHPAPTRKIAVAKQNYRCAGCGIRTDPDYIKRLRYCEYLGKYFCQCCHENAQMVVPSRILRKWDFSKYYVSNFSKDLLLKIWNDPLFNVQDINSALYRKVKLLNQVRLLRVQLYHMKNMFKTCRLAKELLDSFDVVPGHLTEDLHLYSLSDLTATKKGELGPRLAELTRAGAAHVERCMLCQAKGFICEFCQNEEDVIFPFELHKCRTCEECKACYHKTCFKSGRCPRCERLQARRELLAKQSLESYLSDYEEEPTEALALEATVLETT |
| – | binds | FliI (mouse) (protein, UniProt Q9JJ28 1-1271) MEATGVLPFVRGVDLSGNDFKGGYFPENVKAMTSLRWLKLNRTGLCYLPEELAALQKLEHLSVSHNHLTTLHGELSSLPSLRAIVARANSLKNSGVPDDIFKLDDLSVLDLSHNQLTECPRELENAKNMLVLNLSHNGIDSIPNQLFINLTDLLYLDLSENRLESLPPQMRRLVHLQTLVLNGNPLLHAQLRQLPAMMALQTLHLRNTQRTQSNLPTSLEGLSNLSDVDLSCNDLTRVPECLYTLPSLRRLNLSSNQIAELSLCIDQWVHLETLNLSRNQLTSLPSAICKLTKLKKLYLNSNKLDFDGLPSGIGKLTSLEEFMAANNNLELIPESLCRCPKLKKLVLNKNRLVTLPEAIHFLTEIQVLDVRENPSLVMPPKPADRTAEWYNIDFSLQNQLRLAGASPATVAAAAAVGSGSKDPLARKMRLRRRKDSAQDVQAKQVLKGMSDVAQEKNKNQEESIDARAPGGKVRRWDQGLEKPRLDYSEFFTEDVGQLPGLTIWQIENFVPVLVEEAFHGKFYEADCYIVLKTFLDDSGSLNWEIYYWIGGEATLDKKACSAIHAVNLRNYLGAECRTVREEMGDESEEFLQVFDNDISYIEGGTASGFYTVEDTHYVTRMYRVYGKKNIKLEPVPLKGSSLDPRFVFLLDQGLDIYVWRGAQATLSNTTKARLFAEKINKNERKGKAEITLLVQGQEPPGFWDVLGGEPSEIKNHVPDDFWPPQPKLYKVGLGLGYLELPQINYKLSVEHKKRPKVELMPGMRLLQSLLDTRCVYILDCWSDVFIWLGRKSPRLVRAAALKLGQELCGMLHRPRHTVVSRSLEGTEAQVFKAKFKNWDDVLTVDYTRNAEAVLQGQGLSGKVKRDTEKTDQMKADLTALFLPRQPPMPLAEAEQLMEEWNEDLDGMEGFVLEGRKFTRLPEEEFGHFYTQDCYVFLCRYWVPVEYEEEEKTEDKEGKASAEAREGEEAAAEAEEKQPEEDFQCIVYFWQGREASNMGWLTFTFSLQKKFESLFPGKLEVVRMTQQQENPKFLSHFKRKFIIHRGKRKVTQGTLQPTLYQIRTNGSALCTRCIQINTDSSLLNSEFCFILKVPFESEDNQGIVYAWVGRASDPDEAKLAEDILNTMFDASYSKQVINEGEEPENFFWVGIGAQKPYDDDAEYMKHTRLFRCSNEKGYFAVTEKCSDFCQDDLADDDIMLLDNGQEVYMWVGTQTSQVEIKLSLKACQVYIQHTRSKEHERPRRLRLVRKGNEQRAFTRCFHAWSTFRQAPA |

These are yes or no findings as the source states them, for the method shown. Binding seen in cells or lysates may run through a third protein. For some of these results: Binding can be weak; no strength is given.
